Experimental data: the supplement of paper PMC10849652
The list shows a part of the results.

Chains of the proteins cited; added tags and fusions are not shown. Lines headed by an entry give the natural chain unless they say otherwise; changes in a name come on top.
UniProt Q9BY77: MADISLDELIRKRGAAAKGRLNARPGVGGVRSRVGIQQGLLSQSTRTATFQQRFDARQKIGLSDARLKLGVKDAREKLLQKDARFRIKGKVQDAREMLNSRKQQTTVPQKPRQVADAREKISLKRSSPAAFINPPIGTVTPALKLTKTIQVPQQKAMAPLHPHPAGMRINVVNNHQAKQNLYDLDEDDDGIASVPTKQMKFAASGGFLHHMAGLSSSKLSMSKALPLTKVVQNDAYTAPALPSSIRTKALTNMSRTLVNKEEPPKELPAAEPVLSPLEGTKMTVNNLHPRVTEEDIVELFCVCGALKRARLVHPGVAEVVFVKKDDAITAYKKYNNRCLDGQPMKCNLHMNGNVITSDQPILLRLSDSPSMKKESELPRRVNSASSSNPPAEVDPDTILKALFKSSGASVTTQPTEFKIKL
UniProt Q92871: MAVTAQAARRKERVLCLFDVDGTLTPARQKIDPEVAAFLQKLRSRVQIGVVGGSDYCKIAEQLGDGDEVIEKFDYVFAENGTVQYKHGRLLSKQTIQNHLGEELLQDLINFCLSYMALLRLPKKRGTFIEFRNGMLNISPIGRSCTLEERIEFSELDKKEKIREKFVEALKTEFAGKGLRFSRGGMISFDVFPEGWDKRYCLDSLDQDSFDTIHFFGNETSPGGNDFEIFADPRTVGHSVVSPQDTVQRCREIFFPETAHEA
UniProt P62937, whole entry, looked up: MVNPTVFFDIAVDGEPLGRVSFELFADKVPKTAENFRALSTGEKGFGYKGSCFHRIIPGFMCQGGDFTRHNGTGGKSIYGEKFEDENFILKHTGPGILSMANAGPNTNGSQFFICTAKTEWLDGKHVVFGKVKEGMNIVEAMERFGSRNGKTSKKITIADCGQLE
UniProt Q96AD5: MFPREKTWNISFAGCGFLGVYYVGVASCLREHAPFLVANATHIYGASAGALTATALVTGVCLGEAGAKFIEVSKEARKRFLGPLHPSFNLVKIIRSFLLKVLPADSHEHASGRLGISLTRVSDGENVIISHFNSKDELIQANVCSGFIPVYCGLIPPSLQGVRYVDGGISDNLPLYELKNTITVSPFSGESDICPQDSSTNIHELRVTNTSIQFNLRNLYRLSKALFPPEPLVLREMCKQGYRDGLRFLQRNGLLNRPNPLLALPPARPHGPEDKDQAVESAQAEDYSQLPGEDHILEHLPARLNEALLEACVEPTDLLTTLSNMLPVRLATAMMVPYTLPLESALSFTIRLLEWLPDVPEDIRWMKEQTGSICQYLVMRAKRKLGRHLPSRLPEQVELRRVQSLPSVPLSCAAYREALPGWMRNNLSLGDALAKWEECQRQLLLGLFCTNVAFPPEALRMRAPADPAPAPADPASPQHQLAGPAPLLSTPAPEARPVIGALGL
UniProt Q96CD2: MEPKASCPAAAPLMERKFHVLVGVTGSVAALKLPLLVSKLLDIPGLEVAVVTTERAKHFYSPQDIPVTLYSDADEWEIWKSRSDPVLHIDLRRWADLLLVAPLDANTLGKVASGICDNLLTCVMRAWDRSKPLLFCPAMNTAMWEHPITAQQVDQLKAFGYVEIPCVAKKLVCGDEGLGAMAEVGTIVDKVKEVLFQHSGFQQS
UniProt Q9H307: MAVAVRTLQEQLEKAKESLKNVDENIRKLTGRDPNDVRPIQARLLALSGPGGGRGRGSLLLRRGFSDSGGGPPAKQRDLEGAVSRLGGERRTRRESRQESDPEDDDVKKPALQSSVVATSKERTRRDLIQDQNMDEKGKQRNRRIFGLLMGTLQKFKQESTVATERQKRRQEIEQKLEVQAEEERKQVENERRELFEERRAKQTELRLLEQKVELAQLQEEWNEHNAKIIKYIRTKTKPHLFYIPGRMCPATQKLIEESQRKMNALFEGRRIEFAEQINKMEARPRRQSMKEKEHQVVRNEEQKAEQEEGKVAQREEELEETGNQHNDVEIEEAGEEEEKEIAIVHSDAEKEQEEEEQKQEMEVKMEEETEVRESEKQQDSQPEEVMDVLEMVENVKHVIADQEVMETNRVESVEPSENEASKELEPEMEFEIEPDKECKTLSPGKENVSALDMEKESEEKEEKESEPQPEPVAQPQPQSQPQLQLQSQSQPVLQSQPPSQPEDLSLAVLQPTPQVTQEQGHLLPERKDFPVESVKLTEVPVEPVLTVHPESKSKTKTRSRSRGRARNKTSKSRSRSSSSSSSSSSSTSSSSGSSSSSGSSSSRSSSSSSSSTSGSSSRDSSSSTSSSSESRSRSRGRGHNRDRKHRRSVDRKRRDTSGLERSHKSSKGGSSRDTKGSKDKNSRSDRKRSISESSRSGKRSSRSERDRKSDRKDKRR
UniProt P54098: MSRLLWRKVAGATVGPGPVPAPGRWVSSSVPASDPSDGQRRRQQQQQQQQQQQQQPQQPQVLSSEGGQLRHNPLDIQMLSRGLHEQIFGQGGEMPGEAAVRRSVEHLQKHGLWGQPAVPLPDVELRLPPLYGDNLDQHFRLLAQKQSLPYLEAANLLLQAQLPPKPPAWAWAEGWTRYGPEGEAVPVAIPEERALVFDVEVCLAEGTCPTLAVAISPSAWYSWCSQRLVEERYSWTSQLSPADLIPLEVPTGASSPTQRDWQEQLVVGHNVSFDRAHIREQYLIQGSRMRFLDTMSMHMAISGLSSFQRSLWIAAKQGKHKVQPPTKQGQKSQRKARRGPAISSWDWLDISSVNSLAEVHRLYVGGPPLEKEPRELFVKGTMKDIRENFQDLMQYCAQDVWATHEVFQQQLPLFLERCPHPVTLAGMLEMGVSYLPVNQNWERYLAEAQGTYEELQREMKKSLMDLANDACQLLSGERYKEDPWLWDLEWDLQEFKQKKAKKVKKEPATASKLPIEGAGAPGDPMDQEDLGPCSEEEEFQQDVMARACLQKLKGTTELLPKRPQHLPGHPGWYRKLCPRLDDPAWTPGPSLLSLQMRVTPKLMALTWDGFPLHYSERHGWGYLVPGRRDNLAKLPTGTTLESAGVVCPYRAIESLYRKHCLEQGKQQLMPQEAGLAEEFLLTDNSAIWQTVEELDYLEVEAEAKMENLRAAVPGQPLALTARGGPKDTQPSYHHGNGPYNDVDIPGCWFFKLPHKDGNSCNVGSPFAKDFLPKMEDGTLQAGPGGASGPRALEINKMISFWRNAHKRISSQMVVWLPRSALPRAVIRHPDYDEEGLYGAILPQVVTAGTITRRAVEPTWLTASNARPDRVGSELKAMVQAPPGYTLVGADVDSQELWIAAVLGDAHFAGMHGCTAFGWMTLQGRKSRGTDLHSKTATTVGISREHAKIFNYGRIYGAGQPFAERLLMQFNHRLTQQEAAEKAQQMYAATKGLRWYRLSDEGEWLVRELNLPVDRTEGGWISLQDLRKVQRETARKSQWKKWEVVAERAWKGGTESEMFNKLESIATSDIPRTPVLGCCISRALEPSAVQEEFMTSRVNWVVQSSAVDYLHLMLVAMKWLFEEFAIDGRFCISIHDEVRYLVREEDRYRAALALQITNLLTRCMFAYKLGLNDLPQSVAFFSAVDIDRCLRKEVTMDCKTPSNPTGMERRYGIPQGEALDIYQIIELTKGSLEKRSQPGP
UniProt Q8TF01: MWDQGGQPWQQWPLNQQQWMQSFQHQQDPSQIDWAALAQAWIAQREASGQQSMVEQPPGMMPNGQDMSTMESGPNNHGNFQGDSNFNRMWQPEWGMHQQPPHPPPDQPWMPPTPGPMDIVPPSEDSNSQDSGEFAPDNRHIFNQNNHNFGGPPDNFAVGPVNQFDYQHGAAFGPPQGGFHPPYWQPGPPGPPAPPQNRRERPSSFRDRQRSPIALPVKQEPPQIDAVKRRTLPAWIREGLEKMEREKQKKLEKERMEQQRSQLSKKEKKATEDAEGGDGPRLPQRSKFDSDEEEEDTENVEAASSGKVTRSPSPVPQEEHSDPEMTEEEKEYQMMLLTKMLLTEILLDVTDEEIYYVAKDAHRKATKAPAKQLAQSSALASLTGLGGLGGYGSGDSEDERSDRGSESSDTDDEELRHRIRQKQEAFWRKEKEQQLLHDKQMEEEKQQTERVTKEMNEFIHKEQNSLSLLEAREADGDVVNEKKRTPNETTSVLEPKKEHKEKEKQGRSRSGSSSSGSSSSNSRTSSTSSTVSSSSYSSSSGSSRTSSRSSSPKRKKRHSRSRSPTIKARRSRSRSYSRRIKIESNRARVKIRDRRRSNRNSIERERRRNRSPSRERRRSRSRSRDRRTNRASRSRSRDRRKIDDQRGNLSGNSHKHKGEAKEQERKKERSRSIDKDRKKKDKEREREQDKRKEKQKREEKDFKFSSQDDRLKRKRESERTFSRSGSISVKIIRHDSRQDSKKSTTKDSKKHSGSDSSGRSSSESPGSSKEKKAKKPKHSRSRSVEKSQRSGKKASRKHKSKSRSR
UniProt P30405: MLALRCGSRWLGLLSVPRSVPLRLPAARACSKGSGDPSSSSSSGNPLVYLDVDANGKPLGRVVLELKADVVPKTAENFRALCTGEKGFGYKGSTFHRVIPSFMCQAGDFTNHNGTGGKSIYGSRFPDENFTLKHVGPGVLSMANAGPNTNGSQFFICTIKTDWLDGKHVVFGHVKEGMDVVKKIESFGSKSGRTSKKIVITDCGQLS
UniProt Q08752, whole entry, looked up: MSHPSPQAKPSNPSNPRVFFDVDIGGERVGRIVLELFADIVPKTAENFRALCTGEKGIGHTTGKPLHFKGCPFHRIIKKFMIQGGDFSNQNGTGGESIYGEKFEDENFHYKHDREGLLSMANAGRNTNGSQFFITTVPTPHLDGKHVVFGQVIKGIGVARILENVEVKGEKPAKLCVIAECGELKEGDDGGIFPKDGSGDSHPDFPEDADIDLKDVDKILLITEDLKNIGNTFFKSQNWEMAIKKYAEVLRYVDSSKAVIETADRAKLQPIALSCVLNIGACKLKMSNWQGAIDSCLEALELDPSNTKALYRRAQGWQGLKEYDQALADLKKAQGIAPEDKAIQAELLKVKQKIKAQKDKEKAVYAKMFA
UniProt P0CG38, whole entry, looked up: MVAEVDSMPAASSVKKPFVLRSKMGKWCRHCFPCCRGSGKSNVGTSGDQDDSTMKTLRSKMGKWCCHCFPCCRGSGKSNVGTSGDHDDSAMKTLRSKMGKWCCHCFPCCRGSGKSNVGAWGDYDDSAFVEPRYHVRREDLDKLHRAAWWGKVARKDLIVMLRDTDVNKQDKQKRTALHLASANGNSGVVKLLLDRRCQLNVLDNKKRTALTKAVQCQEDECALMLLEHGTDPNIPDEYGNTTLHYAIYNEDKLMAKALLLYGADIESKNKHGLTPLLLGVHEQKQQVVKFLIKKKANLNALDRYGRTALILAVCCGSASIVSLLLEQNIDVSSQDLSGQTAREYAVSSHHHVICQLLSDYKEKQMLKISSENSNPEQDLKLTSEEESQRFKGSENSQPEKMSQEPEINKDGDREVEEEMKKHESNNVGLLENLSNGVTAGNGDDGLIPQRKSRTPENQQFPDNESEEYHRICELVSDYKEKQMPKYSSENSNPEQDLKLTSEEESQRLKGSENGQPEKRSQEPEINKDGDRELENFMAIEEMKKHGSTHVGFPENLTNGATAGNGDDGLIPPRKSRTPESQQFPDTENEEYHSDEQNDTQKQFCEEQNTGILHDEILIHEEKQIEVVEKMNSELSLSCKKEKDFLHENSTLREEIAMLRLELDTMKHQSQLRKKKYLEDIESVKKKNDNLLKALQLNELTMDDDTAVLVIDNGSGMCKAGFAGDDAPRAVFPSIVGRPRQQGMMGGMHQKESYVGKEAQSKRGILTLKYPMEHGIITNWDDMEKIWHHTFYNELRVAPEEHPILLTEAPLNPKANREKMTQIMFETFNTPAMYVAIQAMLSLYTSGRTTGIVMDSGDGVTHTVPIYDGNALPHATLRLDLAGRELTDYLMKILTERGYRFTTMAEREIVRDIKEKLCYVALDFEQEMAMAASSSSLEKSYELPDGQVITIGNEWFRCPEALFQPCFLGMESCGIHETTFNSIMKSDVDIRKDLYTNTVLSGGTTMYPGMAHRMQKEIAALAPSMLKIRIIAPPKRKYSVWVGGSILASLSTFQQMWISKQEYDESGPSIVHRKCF
UniProt Q9H2U2: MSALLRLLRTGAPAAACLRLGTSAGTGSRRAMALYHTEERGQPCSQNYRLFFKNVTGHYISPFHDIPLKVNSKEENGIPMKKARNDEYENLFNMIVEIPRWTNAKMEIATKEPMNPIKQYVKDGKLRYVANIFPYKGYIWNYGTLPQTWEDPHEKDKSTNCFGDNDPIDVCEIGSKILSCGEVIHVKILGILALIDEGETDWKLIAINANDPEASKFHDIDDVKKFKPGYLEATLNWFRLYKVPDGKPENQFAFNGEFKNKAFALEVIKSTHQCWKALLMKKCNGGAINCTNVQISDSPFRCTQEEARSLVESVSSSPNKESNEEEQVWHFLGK
UniProt Q9Y3C6: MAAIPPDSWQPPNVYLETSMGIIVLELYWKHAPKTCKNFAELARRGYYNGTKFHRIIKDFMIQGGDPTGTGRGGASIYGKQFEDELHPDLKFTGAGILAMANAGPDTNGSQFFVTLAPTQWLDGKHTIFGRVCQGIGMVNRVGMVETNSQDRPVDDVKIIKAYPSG

Tests used:
Test in all cases: log2 fold change, soluble protein after heating vs DMSO (PISA); higher = thermal stabilisation; K562 cells, 10 uM, 30 min; active = over 0.2 and 3.5 SD of the protein, either way, in both replicates (recomputed)
bafetinib = compound: Cc1ccc(NC(=O)c2ccc(CN3CC[C@H](N(C)C)C3)c(C(F)(F)F)c2)cc1Nc1nccc(-c2cncnc2)n1 [bafetinib]
Method in brief: (§1)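 Soluble protein was defined as the supernatant after 21,000xg for 90 min. It came from K562 cells at 2×10^6 cells/mL given 10 μM compound for 30 min, heated in aliquots for 3 min across 48°C-58°C, pooled, and extracted in PBS with 0.5% NP-40 at 4°C, and was quantified by TMTpro 16plex LC-MS/MS with equalised channel sums. Thermal stability against control samples, from duplicates, is reported as log2 fold change.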

[1] = compound: Cc1cccc(CC(=O)N2CCc3c2ccc(-c2cn(C)c4ncnc(N)c24)c3F)n1
Method in brief: as §1

nilotinib = compound: Cc1cn(-c2cc(NC(=O)c3ccc(C)c(Nc4nccc(-c5cccnc5)n4)c3)cc(C(F)(F)F)c2)cn1 [nilotinib]
Method in brief: as §1

[2] = compound: Cc1nc(Nc2n[nH]c3c2CN(C(=O)N[C@H](CN(C)C)c2ccccc2)C3(C)C)c2sccc2n1
Method in brief: as §1

dasatinib = compound: Cc1nc(Nc2ncc(C(=O)Nc3c(C)cccc3Cl)s2)cc(N2CCN(CCO)CC2)n1 [dasatinib]
Method in brief: as §1

[3] = compound: Cc1ncc(-c2ccnc(Nc3ccc(S(C)(=O)=O)cc3)n2)n1C(C)C
Method in brief: as §1

[4] = compound: Cn1cc(-c2ccc3c(c2)CCN3C(=O)Cc2cccc(C(F)(F)F)c2)c2c(N)ncnc21
Method in brief: as §1

[5] = compound: Cn1cc(-c2ccc3nnc(C(F)(F)c4ccc5ncccc5c4)n3n2)cn1
Method in brief: as §1

tipifarnib = compound: Cn1cncc1[C@@](N)(c1ccc(Cl)cc1)c1ccc2c(c1)c(-c1cccc(Cl)c1)cc(=O)n2C [tipifarnib]
Method in brief: as §1

mubritinib = compound: FC(F)(F)c1ccc(/C=C/c2nc(COc3ccc(CCCCn4ccnn4)cc3)co2)cc1 [mubritinib]
Method in brief: as §1

| Target | log2 fold change (bafetinib) | log2 fold change [1] | log2 fold change (nilotinib) | log2 fold change [2] | log2 fold change (dasatinib) | log2 fold change [3] | log2 fold change [4] | log2 fold change [5] | log2 fold change (tipifarnib) | log2 fold change (mubritinib) |
| --- | --- | --- | --- | --- | --- | --- | --- | --- | --- | --- |
| POLDIP3 (UniProt Q9BY77) | inactive: 0.03 | inactive: -0.037 | inactive: 0.014 | inactive: -0.031 | inactive: 0.109 | inactive: 0.059 | inactive: -0.108 | inactive: -0.121 | inactive: 0.043 | inactive: -0.019 |
| PMM1 (UniProt Q92871) | inactive: -0.2 | inactive: 0.022 | active: -0.606 | inactive: -0.152 | inactive: -0.027 | inactive: 0.003 | inactive: 0.05 | inactive: 0.025 | inactive: 0.134 | inactive: 0.066 |
| PPIA (UniProt P62937) | inactive: -0.048 | inactive: 0.003 | inactive: -0.004 | inactive: -0.023 | inactive: 0.001 | inactive: 0.001 | inactive: 0.041 | inactive: 0.015 | inactive: -0.01 | inactive: 0.031 |
| PNPLA2 (UniProt Q96AD5) | inactive: 0.084 | inactive: -0.334 | inactive: 0.049 | inactive: -0.112 | inactive: -0.113 | inactive: -0.118 | inactive: 0.056 | inactive: 0.049 | inactive: -0.026 | inactive: 0.113 |
| PPCDC (UniProt Q96CD2) | inactive: 0.02 | inactive: 0.039 | inactive: -0.063 | inactive: 0.007 | inactive: -0.007 | inactive: 0.036 | inactive: 0.051 | inactive: -0.008 | inactive: 0.004 | inactive: 0.05 |
| PLK1 (UniProt P53350) | inactive: -0.048 | inactive: 0.003 | inactive: -0.062 | active: -1.37 | inactive: -0.125 | inactive: 0.152 | inactive: 0.006 | inactive: -0.013 | inactive: 0.019 | inactive: 0.003 |
| PODXL2 (UniProt Q9NZ53) | inactive: -0.115 | inactive: -0.071 | inactive: 0.14 | inactive: -0.015 | inactive: -0.088 | inactive: 0.111 | inactive: -0.107 | inactive: 0.069 | inactive: 0.062 | inactive: 0.026 |
| POLR1C (UniProt O15160) | inactive: 0.057 | inactive: 0.007 | inactive: -0.082 | inactive: -0.12 | inactive: -0.147 | inactive: 0.008 | inactive: 0.058 | inactive: -0.022 | inactive: -0.113 | inactive: -0.072 |
| PNN (UniProt Q9H307) | inactive: -0.08 | inactive: -0.008 | inactive: -0.028 | active: -0.344 | inactive: 0.062 | inactive: -0.039 | inactive: 0.028 | inactive: 0.231 | inactive: 0.255 | inactive: -0.098 |
| PON2 (UniProt Q15165) | inactive: -0.089 | inactive: 0.004 | inactive: 0.002 | inactive: 0.023 | inactive: -0.064 | inactive: -0.029 | inactive: -0.119 | inactive: 0.065 | inactive: 0.06 | inactive: 0.011 |
| POLR2E (UniProt P19388) | inactive: 0.055 | inactive: -0.03 | inactive: -0.007 | inactive: 0.112 | inactive: 0.025 | inactive: 0.306 | inactive: -0.056 | inactive: 0.005 | inactive: -0.088 | inactive: 0.023 |
| POLA2 (UniProt Q14181) | inactive: -0.038 | inactive: 0.058 | inactive: -0.036 | inactive: -0.072 | inactive: -0.101 | inactive: -0.02 | inactive: 0.022 | inactive: 0.001 | inactive: -0.04 | inactive: 0.041 |
| POMGNT1 isoform 2 (UniProt Q8WZA1) | inactive: -0.027 | inactive: -0.097 | inactive: -0.148 | inactive: 0.075 | inactive: 0.078 | inactive: -0.062 | inactive: 0.013 | inactive: 0.147 | inactive: 0.13 | inactive: 0.206 |
| PLPP6 (UniProt Q8IY26) | inactive: 0.015 | inactive: 0.054 | inactive: 0 | inactive: 0.085 | inactive: 0.076 | inactive: -0.188 | inactive: -0.197 | inactive: -0.015 | inactive: -0.287 | inactive: -0.017 |
| POLR2H (UniProt P52434) | inactive: -0.02 | inactive: 0.008 | inactive: -0.021 | inactive: 0.007 | inactive: -0.054 | inactive: 0.123 | inactive: -0.033 | inactive: -0.015 | inactive: 0.043 | inactive: 0.045 |
| PNKD isoform 3 (UniProt Q8N490) | inactive: -0.124 | inactive: -0.007 | inactive: 0.059 | inactive: -0.016 | inactive: 0.023 | inactive: -0.01 | inactive: 0.019 | inactive: -0.102 | inactive: -0.171 | inactive: 0.052 |
| PLEKHF2 (UniProt Q9H8W4) | inactive: -0.033 | inactive: 0.029 | inactive: -0.118 | inactive: -0.066 | inactive: -0.104 | inactive: -0.126 | inactive: 0.088 | inactive: 0.04 | inactive: -0.045 | inactive: 0.019 |
| POLG (UniProt P54098) | inactive: 0.018 | inactive: 0.113 | inactive: 0.015 | inactive: 0.17 | inactive: 0.065 | inactive: -0.005 | inactive: 0.021 | inactive: 0.096 | inactive: 0.112 | inactive: 0.09 |
| POLR2G (UniProt P62487) | inactive: -0.048 | inactive: -0.038 | inactive: 0.012 | inactive: 0.188 | inactive: 0.054 | inactive: 0.202 | inactive: 0.009 | inactive: 0.002 | inactive: 0 | inactive: 0.065 |
| PNISR (UniProt Q8TF01) | inactive: -0.085 | inactive: -0.058 | inactive: 0 | inactive: -0.204 | inactive: 0.03 | inactive: -0.017 | inactive: 0.017 | inactive: -0.002 | inactive: -0.006 | inactive: -0.013 |
| PPIB (UniProt P23284) | inactive: 0.033 | inactive: -0.023 | inactive: -0.018 | inactive: 0.036 | inactive: 0.056 | inactive: -0.039 | inactive: -0.115 | inactive: 0.013 | inactive: 0.06 | inactive: -0.065 |
| PPIF (UniProt P30405) | inactive: -0.087 | inactive: 0.023 | inactive: -0.033 | inactive: 0.046 | inactive: -0.041 | inactive: -0.051 | inactive: 0.036 | inactive: 0.016 | inactive: 0.005 | inactive: 0.032 |
| PPIP5K2 (UniProt O43314) | inactive: -0.033 | inactive: -0.026 | inactive: 0.065 | inactive: 0.046 | inactive: 0 | inactive: -0.005 | inactive: 0.051 | inactive: 0.004 | inactive: -0.032 | inactive: 0.014 |
| PPID (UniProt Q08752) | inactive: 0.015 | inactive: 0.075 | inactive: -0.113 | inactive: -0.13 | inactive: -0.206 | inactive: 0.062 | inactive: 0.023 | inactive: 0.076 | inactive: -0.148 | inactive: -0.005 |
| PML (UniProt P29590) | inactive: -0.078 | inactive: 0.029 | inactive: -0.035 | inactive: -0.046 | inactive: -0.036 | inactive: -0.037 | inactive: -0.047 | inactive: -0.003 | inactive: 0.014 | inactive: -0.023 |
| POTEI (UniProt P0CG38) | inactive: -0.052 | inactive: -0.02 | inactive: 0.046 | inactive: -0.049 | inactive: 0.087 | inactive: 0.043 | inactive: -0.005 | inactive: -0.003 | inactive: -0.019 | inactive: 0.004 |
| PLOD3 (UniProt O60568) | inactive: 0.095 | inactive: -0.029 | inactive: 0.028 | inactive: 0.044 | inactive: 0.001 | inactive: -0.008 | inactive: -0.064 | inactive: 0.006 | inactive: 0.071 | inactive: -0.057 |
| PPA2 (UniProt Q9H2U2) | inactive: 0.004 | inactive: -0.009 | inactive: -0.016 | inactive: 0.082 | inactive: 0.013 | inactive: -0.012 | inactive: 0.067 | inactive: 0.003 | inactive: -0.01 | inactive: 0.014 |
| POGLUT3 (UniProt Q7Z4H8) | inactive: 0.017 | inactive: 0.021 | inactive: 0.001 | inactive: 0.013 | inactive: 0.004 | inactive: -0.054 | inactive: -0.023 | inactive: -0.008 | inactive: 0.047 | inactive: -0.07 |
| PPIL1 (UniProt Q9Y3C6) | inactive: 0.024 | inactive: -0.002 | inactive: -0.029 | inactive: 0.046 | inactive: -0.042 | inactive: 0.073 | inactive: -0.063 | inactive: -0.022 | inactive: -0.088 | inactive: 0.01 |

Record cards, from the list above. Order of values: log2 fold change (bafetinib)	log2 fold change [1]	log2 fold change (nilotinib)	log2 fold change [2]	log2 fold change (dasatinib)	log2 fold change [3]	log2 fold change [4]	log2 fold change [5]	log2 fold change (tipifarnib)	log2 fold change (mubritinib)
POLR2E (UniProt P19388) in the list: inactive: 0.055	inactive: -0.03	inactive: -0.007	inactive: 0.112	inactive: 0.025	inactive: 0.306	inactive: -0.056	inactive: 0.005	inactive: -0.088	inactive: 0.023
PNKD isoform 3 (UniProt Q8N490) in the list: inactive: -0.124	inactive: -0.007	inactive: 0.059	inactive: -0.016	inactive: 0.023	inactive: -0.01	inactive: 0.019	inactive: -0.102	inactive: -0.171	inactive: 0.052
